Measured values reported in patent US20070161665A1, “Cancer treatment method” (priority 2003, published 2007).

System: HN5 cells
Experiment: Roche Cell Death ELISAPlus apoptosis assay in HN5 cells (median effect and sensitization ratio analysis)
Type: cell-based
Conditions: HN5, 24 h
Experimental: HN5 cells are LICR-LON-HN5 head and neck carcinoma cells, which were a gift from the Institute of Cancer Research, Surrey, U.K.
Cell lines were grown in RPMI-1640 supplemented with 25 mM HEPES, 10 mM glutamine and 10% fetal bovine serum and maintained at 37° C. and 5% CO2 in a humid incubator. Assays were performed in 96 well microtiter plates with optimum seeding densities for each cell line.
Apoptosis was measured using the Roche Cell Death ELISA^Plus kit (catalog 1 774 425) which detects fragmented nucleosomal DNA that is generated during apoptosis.
Synergistic interaction between compounds was analyzed by the median effect method described by Chou and Talalay (Adv. Enzyme Regul. 22: 27-55, 1984). Briefly, if the two compounds fit the mutually exclusive model of Chou, one calculates the combination index (CI) using the formula CI=((D)1/(Dx)1)+((D)2/(Dx)2) (1) where (D)1 is the concentration of drug 1 in the combination that gives “x” percent apoptosis, (D)2 is the same for drug 2, and (Dx)1 and (Dx)2 are the concentrations of drug 1 or 2 that give “x” percent apoptosis when used alone. (D)1 and (D)2 are known from the composition of the combination and (Dx)1 and (Dx)2 can be calculated from the equation Dx=Dm*[fa/(1−fa)]^1/m (2) where Dm is the concentration of drug giving 50% effect, fa is the fraction affected, and m is the slope from the median effect plot of log (fa/fu) where fu is the fraction unaffected versus log (D). A CI less than 1 indicates synergy, equal to 1 indicates additivity and greater than 1 antagonism.
Sensitization is measured as the ratio between observed and expected apoptosis or caspase activation from a combination of AKT kinase inhibitor and EGFR/erb inhibitor. The expected level of activity (Ae) is calculated by Ae=1−((1−A1)*(1−A2)) (3) where A1 and A2 are the activities of drugs 1 and 2 alone at the concentration used in the combination (Harvey, R. J., J. Theor. Biol. 74: 411-437, 1978).

CS(=O)(=O)CCNCc1ccc(-c2ccc3ncnc(Nc4ccc(OCc5cccc(F)c5)c(Cl)c4)c3c2)o1.Cc1ccc(S(=O)(=O)O)cc1.Cc1ccc(S(=O)(=O)O)cc1.O [GW572016, N-{3-Chloro-4-[(3-fluorobenzyl)oxy]phenyl}-6-[5-({[2-(methanesulphonyl)ethyl]amino}methyl)-2-furyl]-4-quinazolinamine ditosylate monohydrate]
B (median effect plot) (drug alone (Table 1)): −1.444 | M (slope of median effect plot) (drug alone (Table 1)): 1.427

CS(=O)(=O)CCNCc1ccc(-c2ccc3ncnc(Nc4ccc(OCc5cccc(F)c5)c(Br)c4)c3c2)o1 [GW589522, (4-(3-Fluoro-benzyloxy)-3-bromophenyl)-(6-(5-((2-methanesulphonyl-ethylamino)-methyl)-furan-2-yl)quinazolin-4-yl)-amine]
B (median effect plot) (drug alone (Table 3)): −3.584 | M (slope of median effect plot) (drug alone (Table 3)): 2.983

O=c1cc(N2CCOCC2)oc2c(-c3ccccc3)cccc12 [LY294002, 2-(4-morpholinyl)-8-phenyl-4H-1-benzopyran-4-one, reference compound]
B (median effect plot) (drug alone (Table 1)): −2.433 | M (slope of median effect plot) (drug alone (Table 1)): 1.072 | B (median effect plot) (drug alone (Table 3)): −5.379 | M (slope of median effect plot) (drug alone (Table 3)): 2.573
